# Experimental data taken from PubChem BioAssay AID1347075 (National Center for Advancing Translational Sciences (NCATS), 2019).
# In all, about 400,000 compounds went through this assay and about 5,500 (1.4%) were called active. The inconclusive results got no clear call from the source; some entries with a clear call stand among them for comparison. Calls follow the shape of the dose curve; as a rule, active = well fitted cell-killing curve with a large enough effect; inconclusive = small, poorly fitted or top-dose-only effect, or effect the other way; inactive = flat fitted curve, though single readings scatter. Potencies beside an inconclusive call are fits to weak or partial responses and may not hold up.
# Assay: qHTS assay for MDR1-selective chemotherapeutics: Primary screen using the parental adenocarcinoma cell KB-3-1; also: nearly all actives have a fitted effect of over 60% in size
# Settings: KB-3-1 viability, CellTiter-Glo ATP luminescence, 72 h; activity change, negative = cytotoxic: at 46.1 µM (top of the series)
# Outline: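 KB-3-1 parental drug-naive adenocarcinoma cells in DMEM/10% FBS, incubated 72 h at 37 C with pin-transferred compounds across a concentration series. Viability by CellTiter-Glo luminescence; concentration-response curves fitted after normalization.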
# % is scaled to controls: 0 for no effect and ±100 for the full control effect; potency is read from the fitted curve at half-maximal effect.
Structure (SMILES),Potency,"activity change, negative = cytotoxic"
O[C@@H]1[C@@H](O)C=C2CCN3Cc4cc5c(cc4[C@H]1C23)OCO5 (stereo partly specified),active: 8.2 µM,
COc1cccc(/C=C2\SC(=S)N(CCCC(=O)N(CCO)c3ccccc3)C2=O)c1,"inconclusive: 18.4 µM [cytotoxic, single point]",
Oc1ccc(N2CCN(C(c3ccc(Cl)cc3)c3nnnn3Cc3ccc(F)cc3)CC2)cc1 (stereo unspecified),"inconclusive: 18.4 µM [cytotoxic, single point]",
Fc1cccc(Cl)c1CNCc1cccnc1,,inactive: 13.7%
Cc1ccc(OCC(=O)N/N=C\c2cn(Cc3ccccc3)c3ccccc23)cc1C,"inconclusive: 23.1 µM [cytotoxic, single point]",
Cc1cccc(N2CCN(C(c3ccccc3)c3nnc(-c4ccccc4F)o3)CC2)c1C (stereo unspecified),,inactive: -17.5%
Cc1[nH]n(-c2ccccc2)c(=O)c1/C=N\NC(=O)C1COc2ccccc2O1 (stereo unspecified),"inconclusive: 29.1 µM [cytotoxic, single point]",
Cc1cccc(OCC(=O)NCc2nnc3ccc(C(F)(F)F)cn23)c1C,,inactive: -9.68%
Cc1ccc(NC(=O)c2ncn(CC(=O)NCc3nc4ccccc4[nH]3)n2)cc1C,"inconclusive: 29.1 µM [cytotoxic, single point]",
Cc1cc(C(=O)NC2CCCc3c2cnn3-c2ccc(C)c(C)c2)no1 (stereo unspecified),"inconclusive: 25.9 µM [cytotoxic, partial curve, poor fit]",
O=[N+]([O-])c1ccc(S(=O)(=O)N2CCN=C2SCc2cccnc2)cc1,"inconclusive: 29.1 µM [cytotoxic, single point]",
O=C(Nc1cccc(S(=O)(=O)NCc2ccco2)c1)c1cc(-c2ccc(F)cc2)nc2ccccc12,"inconclusive: 29.1 µM [cytotoxic, single point]",
CCCc1nc2cc(C)c(Br)c(C)n2c1CC1CCCCC1,active: 16.4 µM,
COc1ccc(S(=O)(=O)N2CCC(N3CCN(Cc4ccccc4)C(=O)C3=O)CC2)cc1,,inactive: 1.21%
CN(Cc1ccc(F)cc1)C(=O)c1cccc(S(=O)(=O)N2CCN(c3ccccc3)CC2)c1,"inconclusive: 6.51 µM [cytotoxic, partial curve, poor fit]",
Cc1sc(NC(=O)C2C3C=CC(C3)C2C(=O)O)c(C(N)=O)c1-c1ccc(C(C)C)cc1 (stereo unspecified),"inconclusive: 25.9 µM [cytotoxic, partial curve, poor fit]",
O=C(NC(=S)Nc1ccc(N2CCOCC2)cc1)c1ccco1,,inactive: -6.81%
O=S(=O)(Nc1nc2ccccc2[nH]1)c1ccc(Cl)cc1,,inactive: -14.3%
Cc1ccn2c(NC3CCCCC3)c(-c3ccc(SC4CCCCC4)cc3)nc2c1,"inconclusive: 29.1 µM [cytotoxic, single point]",
CCC1(c2ccc(Cl)cc2)NC(=O)N(CC(=O)NC2CCCCCC2)C1=O (stereo unspecified),,inactive: -6.64%
O=C(CCl)N(c1ccc(Cl)cc1)c1c[nH]c2ccccc12,"inconclusive: 29.1 µM [cytotoxic, single point]",
CCN1/C(=C(\O)c2ccccc2)C(=O)c2ccccc2S1(=O)=O,"inconclusive: 20.6 µM [cytotoxic, partial curve]",
COC1CCCN(Cc2c(C(=O)N3CCN(C4CCCCC4)CC3)nc3ccccn23)C1 (stereo unspecified),,inactive: 22.2%

# Fetched by structure from the list above, 2 records:
Structure (SMILES),Potency,"activity change, negative = cytotoxic"
O=C(NC(=S)Nc1ccc(N2CCOCC2)cc1)c1ccco1,,inactive: -6.81%
Cc1ccc(NC(=O)c2ncn(CC(=O)NCc3nc4ccccc4[nH]3)n2)cc1C,"inconclusive: 29.1 µM [cytotoxic, single point]",

# (next part)

Structure (SMILES),Potency,"activity change, negative = cytotoxic"
O=[N+]([O-])C(=C1SCCS1)C(=C(Cl)Cl)N1CCCCC1,,inactive: -0.43%
CC(=O)Nc1ccc(N=Nc2ccc(O)cc2)cc1,"inconclusive: 29.1 µM [cytotoxic, single point]",
Cn1c(NCCc2ccncc2)nc2cc(-c3ccccc3)sc2c1=O,,inactive: -0.589%
O=C(NCC(=O)N1CCN(Cc2c(F)cccc2Cl)CC1)c1cccc(Cl)c1,,inactive: 0%
CCOc1ccc(C2=NC(c3ccncc3)=Nc3ccc(C)cc3N2)cc1OCC,,inactive: 1.81%
Cn1c(SCC(=O)N2CCN(c3ccccc3)CC2)nnc1-c1cc2ccccc2o1,active: 23.1 µM,
CC(C)C(=O)NC(Nc1cccc2cccnc12)C(Cl)(Cl)Cl (stereo unspecified),"inconclusive: 25.9 µM [cytotoxic, single point]",
O=C(Nc1ccc(Oc2ccccc2)nc1)C1CCCCN1Cc1cccc(O)c1 (stereo unspecified),"inconclusive: 29.1 µM [cytotoxic, single point]",
O=[N+]([O-])c1cc(Cl)ccc1N1CCN(c2cccc(C(F)(F)F)c2)CC1,,inactive: -8.12%
Cc1ccccc1NC(=O)c1cc2c(-c3ccccc3)nn(-c3ccccc3)c2s1,,inactive: 16.8%
COc1ccc(C(C(=O)NCc2ccc(F)cc2)N(C(=O)c2csnn2)C2CC2)cc1 (stereo unspecified),"inconclusive: 29.1 µM [rising, single point]",
O=C(CSc1nc2ccccc2nc1N1CCOCC1)N1CCN(c2ccccc2)CC1,"inconclusive: 29.1 µM [cytotoxic, single point]",
CCCCCNC(=O)C(c1ccncc1)n1c(=O)c(-c2cc3ccccc3[nH]2)nc2ccccc21 (stereo unspecified),"inconclusive: 29.1 µM [cytotoxic, single point]",
C=CC[C@H](CC(=O)N(CCO)Cc1ccccc1)C(=O)N[C@H](COC(=O)[C@@H](CC=C)Cc1ccc(F)cc1)Cc1ccccc1,"inconclusive: 29.1 µM [cytotoxic, single point]",
Cc1ccc(-c2nn(CC(=O)N3CCOCC3)c(=O)c3ccccc23)cc1S(=O)(=O)N(C)C,"inconclusive: 29.1 µM [cytotoxic, single point]",
CN(CC(O)COC(c1ccccc1)c1ccccc1)C1CCCCC1 (stereo unspecified),"inconclusive: 14.6 µM [cytotoxic, partial curve]",
COc1ccc(-c2sc3cc(OC)c(OC)cc3c2-c2ccc(O)cc2)cc1,,inactive: 0%
C=CCNC(=O)c1onc(CSc2ccc(C(C)C)cc2)c1C(=O)O,"inconclusive: 29.1 µM [cytotoxic, single point]",
CCN(/C=N/S(=O)(=O)c1ccc(Cl)cc1)CC,,inactive: -2.95%
c1ccc(-n2ncc3c(NCc4ccco4)ncnc32)cc1,,inactive: 0%
COc1ccc(C2CC(=O)Oc3cc(OC)ccc32)cc1 (stereo unspecified),,inactive: 0%
CCNc1ccc(C(=O)OCC)cc1NC(=O)c1cccc(N(C)C)c1,"inconclusive: 5.17 µM [cytotoxic, partial curve, poor fit]",
CCC(c1nnnn1-c1ccc2c(c1)OCCO2)N1CCN(c2ncccc2C(F)(F)F)CC1 (stereo unspecified),"inconclusive: 20.6 µM [cytotoxic, single point]",
